# Measured values reported in patent publication US5227466A, “Insulin receptor binding site” (City of Hope, priority 1988, dated 1993).
# Amino acid sequences for entries named in this document (tags omitted). Residues count along the entry.
# UniProt P01308, 25-54 limits assumed: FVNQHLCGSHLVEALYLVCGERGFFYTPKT
# UniProt P01308, 90-110 limits assumed: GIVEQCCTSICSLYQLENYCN
# UniProt P05019, 49-118 limits assumed: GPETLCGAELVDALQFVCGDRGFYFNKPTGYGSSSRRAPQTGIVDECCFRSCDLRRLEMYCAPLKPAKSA
# UniProt P01241, 27-217: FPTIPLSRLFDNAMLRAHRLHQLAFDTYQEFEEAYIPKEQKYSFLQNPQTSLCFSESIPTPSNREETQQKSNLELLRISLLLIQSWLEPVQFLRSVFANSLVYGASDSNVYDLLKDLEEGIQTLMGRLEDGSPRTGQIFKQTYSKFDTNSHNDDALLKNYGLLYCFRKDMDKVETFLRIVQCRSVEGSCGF
# “Also recorded” adds a separate entry of the source. Part of at least one peptide drawing is inferred or uncertain, most often the ends. Where a SMILES comes first, the peptide text is derived from it.
# Columns and labels:
# [1] = target: ^125 I-insulin (Homo sapiens, UniProt P01308); assay: 125I-insulin binding to water suspension of the peptide, centrifugation
# Experimental: To test for insulin binding, a water suspension of the peptide was incubated at room temperature with a tracer of ^125 I-insulin followed by simple centrifugation. […] The apparent dissociation constant was ~6×10^-7 M. Non-specific binding was negligible.
# [2] = target: ^125 I-IGF I (Homo sapiens, UniProt P05019); assay: 125I-IGF I binding to the peptide; settings: compared with ^125 I-insulin
# [3] = target: ^125 I-hGH (human growth hormone) (Homo sapiens, UniProt P01241); assay: 125I-hGH binding to the peptide
# [4] = tested on: ^125 I-EGF (epidermal growth factor); assay: 125I-EGF binding to the peptide
compound,measurement,setting,value
CC[C@H](C)[C@H](NC(=O)[C@@H](NC(=O)[C@H](CC(C)C)NC(=O)[C@H](C)NC(=O)[C@H](Cc1ccc(O)cc1)NC(=O)[C@H](CC(N)=O)NC(=O)[C@H](Cc1ccccc1)NC(=O)[C@H](Cc1ccccc1)NC(=O)[C@H](CC(C)C)NC(=O)[C@@H](N)CCCNC(=N)N)C(C)C)C(=O)N[C@@H](Cc1ccccc1)C(=O)N[C@@H](CCC(=O)O)C(=O)N[C@@H](CCSC)C(=O)N[C@H](C(=O)N[C@@H](Cc1c[nH]cn1)C(=O)N[C@@H](CC(C)C)C(=O)N[C@@H](CCCCN)C(=O)N[C@@H](CCC(=O)O)C(=O)O)C(C)C [Sequence I] (H-RLFFNYALVIFEMVHLKE-OH),non-specific binding,[1]; ^125 I-insulin tracer,negligible
same,displacement of tracer binding by unlabelled insulin,[1]; excess of unlabelled insulin,displacable by an excess of unlabelled insulin
same,binding of ^125 I-IGF I,[2],"bound ^125 I-IGF I, but less well; also recorded: binds IGF-I"
same,specific binding of ^125 I-hGH,[3],no specific binding
same,specific binding of ^125 I-EGF,[4],no specific binding
